In the supplement of paper PMC4604168 (melanoma cell lines):
Some of the results follow. Repeats are few or missing, and single values can be far off.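 Imaging used 1,536-well plates; nuclei positive for cleaved PARP by antibody were divided by total DNA-stained nuclei to yield the apoptosis fraction. Doses for screening kept most cells viable, and cell lines differ markedly in resting and induced cleaved-PARP levels.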

What was measured:
Assay in all cases: cleaved PARP positive nuclei fraction relative to DMSO control; melanoma cells; higher = more apoptosis
Settings in all cases: library dose: low library concentration; 72 h
[1] = tested on: 501Mel
[2] = tested on: A101D
[3] = tested on: A2058
[4] = tested on: A375
[5] = tested on: C32
[6] = tested on: CBRC008 (line from a melanoma biopsy)
[7] = tested on: CBRC013 (line from a melanoma biopsy)
[8] = tested on: CBRC014 (line from a melanoma biopsy)
[9] = tested on: CBRC016 (line from a melanoma biopsy)
[10] = tested on: CBRC017 (line from a melanoma biopsy)
[11] = tested on: COLO792
[12] = tested on: COLO800
[13] = tested on: COLO829
[14] = tested on: G361
[15] = tested on: IPC-298
[16] = tested on: IST-MEL1
[17] = tested on: LB2518-MEL
[18] = tested on: LOXIMVI
[19] = tested on: MEL-HO

| SMILES | cleaved PARP positive nuclei fraction [1] [%] | cleaved PARP positive nuclei fraction [2] [%] | cleaved PARP positive nuclei fraction [3] [%] | cleaved PARP positive nuclei fraction [4] [%] | cleaved PARP positive nuclei fraction [5] [%] | cleaved PARP positive nuclei fraction [6] [%] | cleaved PARP positive nuclei fraction [7] [%] | cleaved PARP positive nuclei fraction [8] [%] | cleaved PARP positive nuclei fraction [9] [%] | cleaved PARP positive nuclei fraction [10] [%] | cleaved PARP positive nuclei fraction [11] [%] | cleaved PARP positive nuclei fraction [12] [%] | cleaved PARP positive nuclei fraction [13] [%] | cleaved PARP positive nuclei fraction [14] [%] | cleaved PARP positive nuclei fraction [15] [%] | cleaved PARP positive nuclei fraction [16] [%] | cleaved PARP positive nuclei fraction [17] [%] | cleaved PARP positive nuclei fraction [18] [%] | cleaved PARP positive nuclei fraction [19] [%] |
| --- | --- | --- | --- | --- | --- | --- | --- | --- | --- | --- | --- | --- | --- | --- | --- | --- | --- | --- | --- |
| OCCn1cc(-c2cnc3nnn(Cc4ccc5ncccc5c4)c3n2)cn1 + CN(NC(=O)CC(=O)NN(C)C(=S)c1ccccc1)C(=S)c1ccccc1 [STA4783] (first compound 1 µM, partner dose 0.006 µM) | 132 | 173 | 166 | 396 | 123 | 1220 | 115 | 272 | 111 | 99.8 | 114 | 143 | 165 | 117 | 44.7 | 116 | 60.2 | 107 | 64.1 |
| Cc1nc(Nc2ncc(C(=O)Nc3c(C)cccc3Cl)s2)cc(N2CCN(CCO)CC2)n1 [dasatanib] + COc1cc2c(Oc3ccc4[nH]c(C)cc4c3F)ncnc2cc1OCCCN1CCCC1 [cediranib] (first compound 0.004 µM, partner dose 0.4 µM) | 202 | 93.4 | 198 | 187 | 289 | 91.8 | 146 | 182 | 50.5 | 293 | 128 | 65.8 | 87.5 | 108 | 41.1 | 115 | 91.5 | 683 | 245 |
| Clc1ccc(Nc2nnc(Cc3ccncc3)c3ccccc23)cc1 [vatalanib] + Cc1cc(N2CCOCC2)cc2[nH]c(-c3c(NC[C@@H](O)c4cccc(Cl)c4)cc[nH]c3=O)nc12 [BMS536924] (first compound 2 µM, partner dose 0.2 µM) | 188 | 154 | 89.3 | 188 | 179 | 189 | 120 | 99.4 | 60.3 | 85.6 | 84.1 | 121 | 89.5 | 73.1 | 61.2 | 77.7 | 67.7 | 26.2 | 571 |
| COc1cc(Nc2ncc(F)c(Nc3ccc4c(n3)NC(=O)C(C)(C)O4)n2)cc(OC)c1OC [Tamatinib] + CN(NC(=O)CC(=O)NN(C)C(=S)c1ccccc1)C(=S)c1ccccc1 [STA4783] (first compound 0.4 µM, partner dose 0.006 µM) | 200 | 70.2 | 271 | 4090 | 139 | 1160 | 151 | 594 | 293 | 372 | 340 | 69 | 177 | 122 | 59.5 | 61.5 | 1640 | 136 | 146 |
| COc1cc(Nc2ncc(F)c(Nc3ccc4c(n3)NC(=O)C(C)(C)O4)n2)cc(OC)c1OC [Tamatinib] + O=C(O)c1ccc(-c2c[nH]c3ncc(-c4ccccc4)cc23)cc1C1CCCC1 [GSK650394] (first compound 0.4 µM, partner dose 0.16 µM) | 72.4 | 45.1 | 137 | 161 | 211 | 310 | 116 | 94.9 | 93.2 | 93.3 | 221 | 272 | 171 | 25.6 | 118 | 145 | 95 | 120 | 140 |
| CC(C)(C)c1cnc(CSc2cnc(NC(=O)C3CCNCC3)s2)o1 + O=C(Nc1cccc(Cl)c1)Nc1ncc(CCNc2ncnc3ccsc23)s1 [SNS314] (first compound 0.01 µM, partner dose 0.0008 µM) | 238 | 41.2 | 178 | 112 | 100 | 114 | 113 | 90.8 | 140 | 95.2 | 146 | 68.9 | 135 | 187 | 90 | 47.9 | 49.1 | 139 | 98.1 |
| Cc1cc(N2CCOCC2)cc2[nH]c(-c3c(NC[C@@H](O)c4cccc(Cl)c4)cc[nH]c3=O)nc12 + OCCn1cc(-c2cnc3nnn(Cc4ccc5ncccc5c4)c3n2)cn1 [PF04217903] (first compound 0.2 µM, partner dose 1 µM) | 99.3 | 87 | 129 | 157 | 111 | 119 | 120 | 85.4 | 53.7 | 72.3 | 116 | 67.3 | 167 | 81.3 | 88.6 | 124 | 48 | 20.1 | 98.8 |
| CO[C@@H]1[C@H](N(C)C(=O)c2ccccc2)C[C@H]2O[C@]1(C)n1c3ccccc3c3c4c(c5c6ccccc6n2c5c31)C(=O)NC4 [Midostaurin] + OCCn1cc(-c2cnc3nnn(Cc4ccc5ncccc5c4)c3n2)cn1 [PF04217903] (first compound 0.08 µM, partner dose 1 µM) | 38.3 | 72.5 | 75.4 | 16.8 | 161 | 49.4 | 120 | 85.4 | 261 | 95 | 83.2 | 33.3 | 55.9 | 111 | 29.9 | 184 | 53.7 | 67.9 | 128 |
